Source: article PMC5983237
These are yes or no findings as the source states them, for the method shown. Some binding calls cover weakened binding; strength is not graded here.

By UniProt entry, the sequences of proteins in these tests, tags left out. Residues count along the entry.
UniProt Q08752: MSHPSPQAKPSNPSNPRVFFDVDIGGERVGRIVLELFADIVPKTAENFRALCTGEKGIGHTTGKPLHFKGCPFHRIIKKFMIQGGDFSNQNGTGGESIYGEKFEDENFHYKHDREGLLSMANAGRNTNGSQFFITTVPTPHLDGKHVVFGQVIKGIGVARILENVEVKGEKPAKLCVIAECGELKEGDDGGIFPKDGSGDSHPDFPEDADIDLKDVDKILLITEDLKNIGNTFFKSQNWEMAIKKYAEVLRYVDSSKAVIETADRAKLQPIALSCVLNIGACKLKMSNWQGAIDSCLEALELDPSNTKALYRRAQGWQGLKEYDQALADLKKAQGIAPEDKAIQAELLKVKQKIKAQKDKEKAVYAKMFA
UniProt P04977, residues 35-269: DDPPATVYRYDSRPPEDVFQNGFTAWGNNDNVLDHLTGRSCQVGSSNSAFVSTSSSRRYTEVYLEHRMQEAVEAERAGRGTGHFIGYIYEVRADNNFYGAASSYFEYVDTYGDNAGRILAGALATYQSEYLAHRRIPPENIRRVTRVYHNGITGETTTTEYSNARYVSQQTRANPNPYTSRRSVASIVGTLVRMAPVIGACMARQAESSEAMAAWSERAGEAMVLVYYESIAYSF

Target: cyclophilin 40 (Cyp40) (UniProt Q08752)
Assay: far-Western, overlay or dot blot; CypA and Cyp40 (1 µg, 0.5 µg, 0.25 µg) vacuum-aspirated onto a nitrocellulose membrane; blocked with 5% skim milk in PBST; overlay with PTS1 (200 ng/mL) or PBST for control; bound PTS1 detected by anti-PTS1 antibody, ECL; both purified

## PTS1, the enzymatically active (A) subunit of Bordetella pertussis toxin (from UniProt P04977 35-269) (enzyme)
  binding: binds
